# Literature values as cited in paper PMC13335744, “Functional Analysis of Ligand‐Gated Chloride Channels in a Cnidarian Sheds Light on the Evolution of Inhibitory Signaling” (Advanced Science, 2026).
# Test system: ELIC
# Details: read-out: EC50, activation; low affinity; cited from earlier work
smiles,measurement,value
"NCCCC(=O)O [GABA, γ‐aminobutyric acid]",EC50,21 mM
